Test results taken from patent EP4834881A1, “QUINOLONE COMPOUNDS AND USE THEREOF” (dated 2026).

Legend:
BALB/c mice [1] = assay: Asthma model: OVA sensitization and aerosol challenge, bronchoalveolar lavage fluid (BALF) cell differential count; settings: 5mg/kg PO, 7 days, mean ± SEM
Method: (§1) Experimental animals: BALB/c mice, from Guangdong Vital River Laboratory Animal Technology Co., Ltd.
(§2) Modeling was initiaed on the day of grouping, which was designated as M1. Except for the normal group, mice in all modeling groups were intraperitoneally injected with a sensitization solution of (500 µg OVA (Ovalbumin) (Supplier: Shanghai Macklin, Lot No.: C16255388) mixed with 5 mg aluminum hydroxide/mL) per mouse, while the normal control group was given an equal volume of sterile PBS solution. The injection cycle was M1, M7, and M14. Starting from M21, challenge was carried out by aerosolization once daily for 7 consecutive days. The challenge solution was a 20 mg/mL OVA (Ovalbumin) solution, and each aerosolization challenge lasted for 30 min. The normal control group was not subjected to aerosolization.
(§3) Administration was initiated on day M21, which was designated as D1, and was performed once daily for 7 consecutive days. The normal control group and the model control group were administered with vehicle alone under the same conditions. The administration regimen for the mouse asthma model was as follows:
The lungs were gently lavaged twice with normal saline to collect BALF. The recovered BALF was stored at 4 °C, and the cell differential count was detected using an automated hematology analyzer (Manufacturer: SYSMEX, Model: XN-1000). During the experiment, the asthma model mice developed typical symptoms, including shortness of breath, and ear and nose scratching, etc. […] The results of the bronchoalveolar lavage fluid cell differential count in each group are shown in Table 8, and the data are presented as mean ± standard error of the mean (SEM).

BALB/c mice [2] = assay: Asthma model: IgE assay (ELISA) in peripheral blood, alveolar lavage fluid and lung tissue; settings: 5mg/kg PO, 7 days, mean ± SEM
Method: as §1, §2, §3
Prior to necropsy, blood was collected from the eyeball. The collected mouse blood was then centrifuged at 1800 r/min at 4 °C for 15 min, and the supernatant serum was aliquoted and stored at -80 °C for testing. At the same time, alveolar lavage fluid and lung tissues were collected. The IgE levels in the above three samples was detected using an ELISA method (Supplier: Shanghai Enzyme-linked Biotechnology Co., Ltd., Lot No.: ml1037602). […] The results of the IgE levels in peripheral blood, lavage fluid, and lung tissue of each group are shown in Table 9, and the data are presented as mean ± standard error of the mean (SEM).

Question: What does the source list for `O=C(O)c1cn(C2CC2)c2c(F)c(-c3ccc(S(=O)(=O)N4CCOCC4)cc3)c(F)cc2c1=O`?
Answer: Eosinophil Count (BALB/c mice [1]): 2.4±0.6* 10^9/L; Leukocyte Count WBC (BALB/c mice [1]): 3.0 ±0.8* 10^9/L; Lymphocyte Count (BALB/c mice [1]): 0.2±0.04* 10^9/L; Monocyte Count (BALB/c mice [1]): 0.1±0.04* 10^9/L; Neutrophil Count (BALB/c mice [1]): 0.2 ±0.05* 10^9/L; Alveolar Lavage Fluid IgE Concentration (BALB/c mice [2]; alveolar lavage fluid): 14.8 ± 3.5 ng/mL; Lung Tissue IgE Concentration (BALB/c mice [2]; lung tissue): 48.9 ± 4.6 ng/mL; Peripheral Blood IgE Concentration (BALB/c mice [2]; serum): 12.1 ± 3.2 ng/mL

Structures were worked out from names or drawings and are uncertain. Marks after values point to notes of the source that are not given here.
